# Laboratory results taken from patent US20240361317A1, “PROBES BASED ON VOLATILE ORGANIC COMPOUNDS AND USES THEREOF FOR THE DIAGNOSIS AND PROGNOSIS OF PATHOLOGICAL CONDITIONS” (Centre National de la Recherche Scientifique, priority 2021, published 2024).
# Tested on: KB tumors (tumor xenograft, tumor cells of the nasopharynx KB)
# Assay: In vivo test of cocktail of 4 probes: ethanol isotopes exhaled after i.v. injection
# Design: species or system mouse
# Conditions: doses 0.5 to 100 tested
# Experimental: In the context of this study, the quantity of 4 expired isotopes by mouse models carrying a tumor xenograft (tumor cells of the nasopharynx KB; n=6) was compared to that exhaled by healthy animals (n=6) after i.v. injection of the cocktail.
# The concentration of the 4 probes to be injected was determined beforehand according to a precise experimental plan having the objective of determining the amount of each probe inducing a minimum ethanol response in healthy animals (signal reaching a low or even zero basal level). In this context, the healthy animals received increasing doses of the 4 probes ([…] at 100 μg·kg^−1). The animals were then placed in a hermetic cage for 1 h. The amount of each ethanol isotope present in the breath of the animals was then measured for 30 min via an SPME sample, then a GC-TQMS analysis.
# Once the i.v. doses are set, the cocktail was injected into healthy mice and diseased mice after 12 and then 15 days of implantation of the xenograft. The amount of the ethanol isotopes exhaled by the animals was measured 1 h after injection of the cocktail (FIG. 10). A negative control on two mice (healthy and diseased) was carried out. This control consisted of measuring the quantity of 4 isotopes of ethanol in the air surrounding the mice which had not received the cocktail. Ethanol-D5, ethanol-D4 and ethanol-^13CD5 were not detected. On the other hand, the specific transitions of ethanol-D2 gave an important signal, which implies the presence of an interfering compound in the environment of the mice. The amount of ethanol-D2 exhaled by the healthy mice was therefore subtracted from this background noise.
row,Molecule,optimal injection dose (minimum ethanol response in healthy animals) [mg/kg]
1,[2H]C([2H])([2H])C([2H])([2H])O[C@@H]1O[C@H](C(=O)O)[C@@H](O)[C@H](O)[C@H]1O [D5-ethyl-β-D-glucuronide],0.01
2,^13C-D5-ethyl-N-acetylglucosamide [^13C-D5-ethyl-N-acetylglucosamine],0.01
3,[2H]C(O[C@@H]1O[C@@H](C)[C@@H](O)[C@@H](O)[C@@H]1O)C([2H])([2H])[2H] (stereo partly drawn) [D4-ethyl-1-α-L-fucopyranoside],0.1
4,[2H]C([2H])(C)O[C@@H]1O[C@H](CO)[C@H](O)[C@H](O)[C@H]1O [D2-ethyl-β-D-galactopyranoside],0.001

# Tested on: not listed separately
# Assay: SPME-GC-TQMS detection ranges of ethanol isotopes in solution
# Conditions: SPME 30 min at 30° C.; isotopes in mixture in solution
row,Molecule,limit of detection of ethanol isotope
1,[2H]C([2H])([2H])C([2H])([2H])O [ethanol-D5],1.10^9 M
2,[2H][13C]([2H])([2H])[13C]([2H])([2H])O [ethanol-^13C-D5],5.10^9 M
